From the supplement of paper PMC10338343
± gives the standard deviation. Only a part is listed here, and it is no random draw. Many entries were measured with a wide error.

System: MIWI (PIWIL1) piRISC loaded with piRNA #2 (30 nt)
Assay: pre-steady-state target cleavage rate (min^-1); MIWI and MILI are mouse PIWI proteins and EfPiwi is from a freshwater sponge; tags in brackets are library labels; higher = faster piRNA-guided slicing of the target
Details: guide: piRNA #2 5'p-UUAGGUAACCCAGUAGAUCCAGAGGAAUUC; auxiliary factor: 500 nM mouse GTSF1
Summary of the method: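 For Cleave-'n-Seq, a transcribed, DNA-blocked target RNA library […] met 1 nM active affinity-purified piRISC with one synthetic guide at 33 °C for 0–8 or 0–960 min in HEPES–potassium acetate buffer, with or without 500 nM GTSF1 partner protein. Uncleaved targets were sequenced and normalised to depth and weakly complementary targets, with three trials pooled and k3 capped at 0.0001 min^-1. A burst-and-steady-state fit supplied the pre-steady-state cleavage rate.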
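Note: 1 nM active piRISC with 0.1 nM target library at 33 °C single turnover.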

Row | Sequence | pre-steady-state target cleavage rate
1 | CUUAAGGAGACCUUCUACUGGGAUACCAAA | 0.00128 ± 0.007
2 | CUUAAGGAGACCUUCUACUGGGUUGCCUAA | 0.00146 ± 0.0071
3 | CUUAAGGAGACCUAGAACUGGGUUCACCUAA | 0.000216 ± 0.055
4 | CUUAAGGAGACCUACUACUAGGGUUACCUAA | 0.00113 ± 0.0071
5 | GAAUUCCUGUGGAUCUACUGGGUUACGUAA | 0.637 ± 0.063
6 | CUUAAGGAGACGAUCUCUGGGUUACCUAA | 0.000562 ± 0.015
7 | CUUAAGGAGACGAUCUACACGGUUACCUAA | 0.000681 ± 0.018
8 | CUUAAGGAGACCUUCUACUGGGUUAGCAAA | 0.000125 ± 0.027
9 | CUUAAGGAGAGCUUCUACUGGGUUACCUAA | 0.00312 ± 0.0035
10 | CUUAAGGAGAGGAUGUACUGCGUUACCUAA | 0.00241 ± 0.0072
11 | CUUAAGGAGACCUACUACUGGGUUACCAAA | 0.00124 ± 0.0047
12 | CUUAAGGAGACCAUCUACUUGGUUACCUAA | 0.00125 ± 0.0065
13 | CUUAAGCUCUGGAUCUACUCGGGUUACCUAA | 0.000718 ± 0.011
14 | CUUAAGCUCUGGAUCUACCUGGGUUACCUAA | 0.000249 ± 0.026
15 | CUUAAGGAGUGGAUCUACUGGGAAACCUAA | 0.000465 ± 0.012
16 | CUUAAGGAGACGAUGUUCUGGGUUACCUAA | 0.000346 ± 0.022
17 | CUUAAGGAGACCUACUACUGGGUUACCUAC [g2:g16:cont:t1C] | 0.00248 ± 0.0052
18 | CUUAAGGAGACCAUCUCACUGGGUUACCUAA | 0.000646 ± 0.011
19 | CUUAAGGAGAGGAUCUACUGCCAUACCUAA | 0.000529 ± 0.015
20 | CUUAAGGACUGGAUCUACUGGGUAACCUUA | 0.00433 ± 0.015
21 | CUUAAGGACUGGAUCUACUCGGUUACCUAA | 0.0207 ± 0.022
22 | CUUAAGGAGUGGAUCUACCUGGGUUACCUAA | 0.00078 ± 0.009
23 | CUUAAGGAGACCUAGAUCUGGGUUACCCUAA | 0.000329 ± 0.016
24 | CUUAAGGAGAGGAUCUACUGGGUAACCUUA | 0.000305 ± 0.021

Row | Sequence | pre-steady-state target cleavage rate
25 | CUUAAGGAGACCUAGAUGUGGGUUACCAUAA | 0.000615 ± 0.011
26 | CUUAACCUCUGGAUAUACUGGGUUACCUAA | 0.552 ± 0.042
27 | CUUAUCCUCUGGAUCUACUGGUGUUACCUAA | 0.00283 ± 0.0044
28 | CUUAAGGAGACCAUCUACUGGGUUCCUAA | 0.000716 ± 0.012
29 | CUUAAGGAGACCAUCUACUGGUUACCUAA | 0.00154 ± 0.0051
30 | CAAUACGUCUGGAUCUACUGGGUUACCUAA | 0.494 ± 0.053
31 | CUUAAGGACUGGAUCUACUGCCUUACCUAA | 0.00533 ± 0.0099
32 | CUUAAGGAGUGGAUCUACUCGGUUACCAAA | 0.00101 ± 0.019
33 | GAAUUCCUCUGCAACUACUGGGUUACCUAA | 0.413 ± 0.048
34 | CUUUUCCUCUGGAUCUAACUGGGUUACCUAA | 0.00138 ± 0.0072
35 | CUUAAGGACUGAUCUACUGGGUUACCUAA | 0.00708 ± 0.0098
36 | CUUAACCUCUGGAUCUACUGGGUAUGGAUA [g8:g25:cont:t1A] | 0.000957 ± 0.013
37 | CUUAAGGAGACGAUCUAGUGGGUUACGUAA | 0.000391 ± 0.0066
38 | CUUAACCUCUGGAUCUACUGGGUUACCGUAA | 0.155 ± 0.019
39 | CUUAAGGAGACCUUGUACUGGGUUACCAAA | 0.000262 ± 0.016
40 | CUUAAGGAGACCAUCUACUGGCUUACGUAA | 0.00134 ± 0.0066
41 | CUUAAGGAGACCUUCUACUGGCUUACGUAA | 0.000514 ± 0.011
42 | CUUUUCCUCUGGAUCUACUGGGUACCUAA | 0.00119 ± 0.006
43 | CUAUUCCUCUGGAUCUUACUGGGUUACCUAA | 0.00334 ± 0.0039
44 | CUUAAGGAGAGGAUCUACUGGGUUACGAUA | 0.000541 ± 0.013
45 | CUAUUCCUCUGGAUCAACUGGGUUACCUAA | 0.44 ± 0.051
46 | CUUAAGGACUGGAUCUACUGGGUUUCGUAA | 0.00837 ± 0.0098
47 | CAAUUCCUCUGGAUCUACUGGCAAACCUAA | 0.00304 ± 0.0041
48 | CUUAAGCUCUGGAUCUACUGGCAUACCUAA | 0.00166 ± 0.0078

Row | Sequence | pre-steady-state target cleavage rate
49 | CUUAAGGAGAGGAUCUACUUGGUUACCUAA | 0.00298 ± 0.0043
50 | CUUAAGGAGACGAUCUACAUGGGUUACCUAA | 0.00106 ± 0.0072
51 | CUUAAGCUCUGGAUCUACUGCCAUACCUAA | 0.00142 ± 0.01
52 | CUUAAGGAGACCAUCUACUGGGUUACCAUA | 0.00206 ± 0.0044
53 | CUUAAGGAGACCUAGUAUCUGGGUUACCUAA | 0.000675 ± 0.015
54 | CUUAAGGAGACCUUCUAUGGGUUACCUAA | 0.001 ± 0.011
55 | GAAUUCCUCUGGAUCUACUGGGUGACCUAA | 0.244 ± 0.038
56 | CUAUUCCUCUGGAUUUACUGGGUUACCUAA | 0.529 ± 0.048
57 | CUUAAGGAGACCUUCUACUGGGUAUGCUAA | 0.000582 ± 0.013
58 | CUUAAGGAGACCUAGAUCUUGGGUUACCUAA | 0.00111 ± 0.0075
59 | CUUAAGGUCUGGAUGUUCUGGGUUACCUAA | 0.05 ± 0.018
60 | CUUAAGGAGACGAUCUUCUGGCUUACCUAA | 0.000248 ± 0.014
61 | CUUAAGGAGACCUAGAAGCUGGGUUACCUAA | 0.000854 ± 0.0096
62 | CUUAACCUCUGGAUCUACUGGAGUUACCUAA | 0.00317 ± 0.0031
63 | CAAUUCCUCUGCUUCUACUGGGUUACCUAA | 0.653 ± 0.056
64 | CUUAAGGAGAGGUAGUACUGGGUUACCUAA | 0.000832 ± 0.012
65 | CUUAAGGAGAGGUUCUACUGGGAUACCUAA | 0.00084 ± 0.011
66 | CUUAAGGACUGGAUUACUGGGUUACCUAA | 0.00908 ± 0.014
67 | CUUAAGGACUGGAUCAACUCGGUUACCUAA | 0.00252 ± 0.013
68 | CUUAAGGUCACCAUCUACUGGGUUACCUAA | 0.00137 ± 0.0062
69 | CUUAAGGACUGGAUGUACUCGGUUACCUAA | 0.00083 ± 0.028
70 | CUUAAGGAGAGGAUCUACUGCGUUAGCUAA | 0.000176 ± 0.041
71 | CUAUUCCUCUGGAUGUACUGGGUUACCUAA | 0.533 ± 0.041

Part of the list above, as a markdown table:

| Row | Sequence | pre-steady-state target cleavage rate |
| --- | --- | --- |
| 52 | CUUAAGGAGACCAUCUACUGGGUUACCAUA | 0.00206 ± 0.0044 |
| 53 | CUUAAGGAGACCUAGUAUCUGGGUUACCUAA | 0.000675 ± 0.015 |
| 61 | CUUAAGGAGACCUAGAAGCUGGGUUACCUAA | 0.000854 ± 0.0096 |
| 66 | CUUAAGGACUGGAUUACUGGGUUACCUAA | 0.00908 ± 0.014 |
